One substance from paper PMC11054660 can be followed below.

Sequences of proteins named here, by UniProt entry; tags and fusion partners are left off. A change or cut given only in a name is not applied to a line headed by its entry.
UniProt P11557: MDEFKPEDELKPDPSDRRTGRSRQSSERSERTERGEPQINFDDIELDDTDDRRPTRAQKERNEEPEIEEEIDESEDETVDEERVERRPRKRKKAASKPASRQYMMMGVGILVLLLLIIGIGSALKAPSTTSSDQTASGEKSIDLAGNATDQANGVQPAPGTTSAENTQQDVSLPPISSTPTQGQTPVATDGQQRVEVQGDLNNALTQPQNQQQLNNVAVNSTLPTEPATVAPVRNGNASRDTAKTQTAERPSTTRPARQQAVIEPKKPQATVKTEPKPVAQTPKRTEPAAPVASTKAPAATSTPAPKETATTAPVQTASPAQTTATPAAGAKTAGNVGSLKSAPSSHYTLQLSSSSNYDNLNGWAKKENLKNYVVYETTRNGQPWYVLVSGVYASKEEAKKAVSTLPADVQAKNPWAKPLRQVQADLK

These are yes or no findings as the source states them, for the method shown. A result given as binding can be weak or reduced; the word gives no strength. Where a sequence is shown, tags or fusion partners need not be part of it.

The test concerns the target T1, T4 gp27 with an N-terminal 10xHis-tag (gp27-N), purified (bacteriophage T4) (UniProt P17172).
T1 sequence: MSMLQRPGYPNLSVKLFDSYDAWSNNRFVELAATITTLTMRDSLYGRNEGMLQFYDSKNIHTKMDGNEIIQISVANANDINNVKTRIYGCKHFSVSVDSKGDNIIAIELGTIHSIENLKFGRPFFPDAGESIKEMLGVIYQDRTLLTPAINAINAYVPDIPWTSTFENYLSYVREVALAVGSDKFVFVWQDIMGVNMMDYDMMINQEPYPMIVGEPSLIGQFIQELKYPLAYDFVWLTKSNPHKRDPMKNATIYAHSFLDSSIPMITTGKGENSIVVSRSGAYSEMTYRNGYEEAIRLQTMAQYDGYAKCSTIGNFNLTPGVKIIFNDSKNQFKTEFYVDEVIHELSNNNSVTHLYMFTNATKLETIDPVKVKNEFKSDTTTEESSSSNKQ
Briefly: pull-down; Strep-purified DamX or PpiD incubated with purified gp27-N-His for 15 min at 37 °C; nickel affinity chromatography; flow-through, wash and elution fractions on SDS-PAGE; both purified.

For the substance “E. coli DamX with an N-terminal Strep-tag, purified (from UniProt P11557)”, the binding result is “binds”.
